Measurements published in paper PMC7430634, “Inactivation of the dimeric RappLS20 anti-repressor of the conjugation operon is mediated by peptide-induced tetramerization” (Nucleic Acids Research, 2020).

T1: 6-FAM-Phr*_(pLS20) (GQKGMY with N-terminal fluorescein) (Bacillus subtilis plasmid pLS20)
T1 sequence (peptide, fluorescein (6-FAM) label on the N-terminus): GQKGMY


How the values were obtained:
[1] = biological target: T1, 6-FAM-Phr*_(pLS20) (GQKGMY with N-terminal fluorescein) (Bacillus subtilis plasmid pLS20); test: fluorescence polarisation; direct titration: Rap_(pLS20) varied 0.1–100 μM, 50 nM 6-FAM-Phr*_(pLS20); 20 mM Tris pH 7.5, 150 mM NaCl, 1 mM DTT, 0.01% Triton X-100; 25°C; both purified
[2] = biological target: T1, 6-FAM-Phr*_(pLS20) (GQKGMY with N-terminal fluorescein) (Bacillus subtilis plasmid pLS20); test: fluorescence polarisation; equilibrium competition: native Phr*_(pLS20) 0.6–1250 μM against 10 μM Rap_(pLS20) and 50 nM 6-FAM-Phr*_(pLS20); 20 mM Tris pH 7.5, 150 mM NaCl, 1 mM DTT, 0.01% Triton X-100; 25°C; both purified
[3] = biological target: Rap_(pLS20) (Bacillus subtilis plasmid pLS20); test: crystal structure; Rap_(pLS20)/Phr*_(pLS20) complex, peptide added at 1:5 (Rap:Phr*), space group C2, four protein molecules in the asymmetric unit; 2.5% PEG8K, 8% ethylene glycol, 0.1 M MES pH 6.8, 18°C; both purified

| binding [1] | binding [2] | binding [3] | Molecule |
| --- | --- | --- | --- |
| binds | binds |  | Rap_(pLS20) (Bacillus subtilis plasmid pLS20) |
|  |  | binds | QKGMY [Phr*_(pLS20) peptide (QKGMY)] |

These are yes or no findings as the source states them, for the method shown. Binding can be weak; no strength is given.
